Measured values reported in the supplement of paper PMC11438910.
The other results are listed elsewhere or left out. The signal is at background level for most entries.

Columns and labels:
Experiment in all cases: fluorescence intensity of antibody binding to polysaccharide-coupled beads; higher = stronger binding
[1] = target: pneumococcal polysaccharide Pn41A
[2] = target: pneumococcal polysaccharide Pn41F
[3] = target: pneumococcal polysaccharide Pn42
[4] = target: pneumococcal polysaccharide Pn43
[5] = target: pneumococcal polysaccharide Pn44
[6] = target: pneumococcal polysaccharide Pn45
[7] = target: pneumococcal polysaccharide Pn46
[8] = target: pneumococcal polysaccharide Pn47A
[9] = target: pneumococcal polysaccharide Pn47F
[10] = target: pneumococcal polysaccharide Pn48
[11] = target: pneumococcal polysaccharide Pn5
[12] = target: pneumococcal polysaccharide Pn6A
[13] = antibody concentration 2.8593 ng/mL
[14] = antibody concentration 15.2894 ng/mL
[15] = antibody concentration 81.7561 ng/mL
[16] = antibody concentration 437.17 ng/mL
[17] = antibody concentration 2337.65 ng/mL
[18] = antibody concentration 12500 ng/mL
[19] = antibody concentration 0.1 ng/mL
[20] = antibody concentration 0.534724 ng/mL

B1: 4-127.1 (protein)
chain 1: QVQLQESGPGLVKPSETLSLTCAVSDYSINTGHGWTWIRQPPGKGLEWIGYIGGSSGSPNYNPSLKSRVTISKDTSKNELSLKLNSVTAADTAVYYCARRIPADRSGNDFWGQGVLVTVSS
chain 2: QSVLTQPPSVSGDPGQRVTISCTGSSSNIGGFYGYWYQQFPGTAPKLLIYDNNKRPSGISDRFSGSKSGTSASLTITGLQPGDEADYYCGSWDSSLSAHVFGSGTKLTVL
- fluorescence intensity [1, 13]: 24 MFI
- fluorescence intensity [1, 14]: 24 MFI
- fluorescence intensity [1, 15]: 22.5 MFI
- fluorescence intensity [1, 16]: 22.2 MFI
- fluorescence intensity [1, 17]: 25.8 MFI
- fluorescence intensity [1, 18]: 28 MFI
- fluorescence intensity [2, 19]: 12 MFI
- fluorescence intensity [2, 20]: 12 MFI
- fluorescence intensity [2, 13]: 12 MFI
- fluorescence intensity [2, 14]: 12 MFI
- fluorescence intensity [2, 15]: 12.2 MFI
- fluorescence intensity [2, 16]: 13 MFI
- fluorescence intensity [2, 17]: 15.5 MFI
- fluorescence intensity [2, 18]: 20.5 MFI
- fluorescence intensity [3, 19]: 11.5 MFI
- fluorescence intensity [3, 20]: 12 MFI
- fluorescence intensity [3, 13]: 12 MFI
- fluorescence intensity [3, 14]: 12.5 MFI
- fluorescence intensity [3, 15]: 12 MFI
- fluorescence intensity [3, 16]: 11.8 MFI
- fluorescence intensity [3, 17]: 13.5 MFI
- fluorescence intensity [3, 18]: 21.8 MFI
- fluorescence intensity [4, 19]: 15 MFI
- fluorescence intensity [4, 20]: 15.8 MFI
- fluorescence intensity [4, 13]: 15.5 MFI
- fluorescence intensity [4, 14]: 15.5 MFI
- fluorescence intensity [4, 15]: 14.8 MFI
- fluorescence intensity [4, 16]: 17.5 MFI
- fluorescence intensity [4, 17]: 23 MFI
- fluorescence intensity [4, 18]: 89.5 MFI
- fluorescence intensity [5, 19]: 25 MFI
- fluorescence intensity [5, 20]: 26 MFI
- fluorescence intensity [5, 13]: 23 MFI
- fluorescence intensity [5, 14]: 25.2 MFI
- fluorescence intensity [5, 15]: 26.5 MFI
- fluorescence intensity [5, 16]: 25.5 MFI
- fluorescence intensity [5, 17]: 30 MFI
- fluorescence intensity [5, 18]: 32.5 MFI
- fluorescence intensity [6, 19]: 10.5 MFI
- fluorescence intensity [6, 20]: 11 MFI
- fluorescence intensity [6, 13]: 11 MFI
- fluorescence intensity [6, 14]: 11 MFI
- fluorescence intensity [6, 15]: 10 MFI
- fluorescence intensity [6, 16]: 10.2 MFI
- fluorescence intensity [6, 17]: 14.8 MFI
- fluorescence intensity [6, 18]: 16.8 MFI
- fluorescence intensity [7, 19]: 23.8 MFI
- fluorescence intensity [7, 20]: 23.8 MFI
- fluorescence intensity [7, 13]: 22.8 MFI
- fluorescence intensity [7, 14]: 24.5 MFI
- fluorescence intensity [7, 15]: 25 MFI
- fluorescence intensity [7, 16]: 25.5 MFI
- fluorescence intensity [7, 17]: 27.2 MFI
- fluorescence intensity [7, 18]: 47 MFI
- fluorescence intensity [8, 19]: 14.5 MFI
- fluorescence intensity [8, 20]: 16.5 MFI
- fluorescence intensity [8, 13]: 15 MFI
- fluorescence intensity [8, 14]: 17 MFI
- fluorescence intensity [8, 15]: 16.5 MFI
- fluorescence intensity [8, 16]: 15.5 MFI
- fluorescence intensity [8, 17]: 15.5 MFI
- fluorescence intensity [8, 18]: 21 MFI
- fluorescence intensity [9, 19]: 11.5 MFI
- fluorescence intensity [9, 20]: 11.5 MFI
- fluorescence intensity [9, 13]: 13 MFI
- fluorescence intensity [9, 14]: 12 MFI
- fluorescence intensity [9, 15]: 12 MFI
- fluorescence intensity [9, 16]: 11.5 MFI
- fluorescence intensity [9, 17]: 14.2 MFI
- fluorescence intensity [9, 18]: 32.5 MFI
- fluorescence intensity [10, 19]: 19.5 MFI
- fluorescence intensity [10, 20]: 21.5 MFI
- fluorescence intensity [10, 13]: 21 MFI
- fluorescence intensity [10, 14]: 22.8 MFI
- fluorescence intensity [10, 15]: 22 MFI
- fluorescence intensity [10, 16]: 22 MFI
- fluorescence intensity [10, 17]: 31 MFI
- fluorescence intensity [10, 18]: 50.5 MFI
- fluorescence intensity [11, 19]: 8.5 MFI
- fluorescence intensity [11, 20]: 8.5 MFI
- fluorescence intensity [11, 13]: 10 MFI
- fluorescence intensity [11, 14]: 8 MFI
- fluorescence intensity [11, 15]: 8.5 MFI
- fluorescence intensity [11, 16]: 10 MFI
- fluorescence intensity [11, 17]: 12.5 MFI
- fluorescence intensity [11, 18]: 34.5 MFI
- fluorescence intensity [12, 19]: 20.8 MFI
- fluorescence intensity [12, 20]: 20.8 MFI
- fluorescence intensity [12, 13]: 20.5 MFI
- fluorescence intensity [12, 14]: 21.2 MFI
